Source: publication PMC5996148
Some of the results follow. For some assays here: Construct or isoform of the protein are uncertain.

Key:
Test in all cases: protein microarray (ProtoArray v5.0), streptavidin-Alexa Fluor 647
Conditions in all cases: 3'-biotin; 20 mM Tris (pH 7.5), 5 mM MgCl2, 100 mM KCl, 0.1% Tween-20, A/T-rich and random oligonucleotide blockers; temperature not stated; high values mean tight binding
Leiomodin-1 (human) = test system: Leiomodin-1 (human)
[1] = test system: Leptin receptor gene-related protein (human)
[2] = test system: Leucine carboxyl methyltransferase 1 (human)
[3] = test system: Linker for activation of T-cells family member 1 (human)
[4] = test system: Lipoma HMGIC fusion partner-like 4 protein (human)
[5] = test system: LisH domain-containing protein ARMC9 (human)
[6] = test system: Low molecular weight phosphotyrosine protein phosphatase (human)
[7] = test system: Ly6/PLAUR domain-containing protein 5 (human)
M6PRBP1 (human) = test system: M6PRBP1 (human)
MAG (human) = test system: MAG (human)
MAGEA4 (human) = test system: MAGEA4 (human)
MAGEH1 = biological target: T1, MAGEH1 (UniProt Q9H213)
T1 sequence: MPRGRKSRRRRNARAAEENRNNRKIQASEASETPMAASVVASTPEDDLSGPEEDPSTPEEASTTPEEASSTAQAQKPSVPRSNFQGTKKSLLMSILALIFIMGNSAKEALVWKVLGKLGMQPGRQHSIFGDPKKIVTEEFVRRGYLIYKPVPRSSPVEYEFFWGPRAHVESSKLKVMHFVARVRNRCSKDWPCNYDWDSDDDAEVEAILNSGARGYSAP

MAN2C1 (human) = test system: MAN2C1 (human)
MANSC1 (human) = test system: MANSC1 (human)
[8] = test system: MAP kinase-activated protein kinase 3 (human)
MAP3K7IP1 (human) = test system: MAP3K7IP1 (human)
MAP3K8 (human) = test system: MAP3K8 (human)
MAP4 (human) = test system: MAP4 (human)
MAPK6 (human) = test system: MAPK6 (human)
MAPK9 (human) = test system: MAPK9 (human)

GGTGACAGGGGTATGGGGAGGGG [G4-2 biotinylated (Ct1)]
binding signal (Leiomodin-1 (human)): 6.04 z-score | binding signal [1]: -0.378 z-score | binding signal [2]: -0.383 z-score | binding signal [3]: -0.397 z-score | binding signal [4]: -0.374 z-score | binding signal [5]: -0.359 z-score | binding signal [6]: -0.376 z-score | binding signal [7]: -0.385 z-score | binding signal (M6PRBP1 (human)): -0.397 z-score | binding signal (MAG (human)): -0.361 z-score | binding signal (MAGEA4 (human)): -0.388 z-score | binding signal (MAGEH1): 5.27 z-score | binding signal (MAN2C1 (human)): -0.365 z-score | binding signal (MANSC1 (human)): -0.389 z-score | binding signal [8]: 6.79 z-score | binding signal (MAP3K7IP1 (human)): -0.398 z-score | binding signal (MAP3K8 (human)): -0.36 z-score | binding signal (MAP4 (human)): -0.373 z-score | binding signal (MAPK6 (human)): -0.374 z-score | binding signal (MAPK9 (human)): -0.388 z-score
